Results from patent publication US7241738B2, “Peptides effective in the treatment of tumors and other conditions requiring the removal or destruction of cells” (Nymox Pharmaceutical Corporation, priority 2001, dated 2007).
Not every detail of the peptide structures is certain; ends, links or a residue may be inferred. Peptide text beside a SMILES is read from it.

System: muscle tissue, subcutaneous connective tissue, and dermis at injection sites
Experiment: Injection into skin, subcutaneous tissue and extremity skeletal muscle of normal rats; histopathology at 24 hours
Format: in vivo, rat
Conditions: at 0.1-1 mg/mL in saline
From the text: The individual foci of infiltration were excised, fixed in 10% formalin, embedded in paraffin, and stained and examined by standard histopathological methods.
The controls received saline alone.
Tissues were excised, fixed in 10% formalin, embedded in paraffin, and stained and examined by standard histopathological methods.

## CC[C@H](C)[C@H](NC(=O)[C@H](CCC(=O)O)NC(=O)[C@H](CC(C)C)NC(=O)[C@H](CCCCN)NC(=O)[C@@H](NC(=O)[C@H](CCCNC(=N)N)NC(=O)[C@H](CO)NC(=O)[C@@H](N)CC(C)C)[C@@H](C)CC)C(=O)N[C@@H](CCCCN)C(=O)O [NTP peptide #7, LSRIKLEIK] (H-LSRIKLEIK-OH; N-terminus and C-terminus assumed)
  histopathology of tissue at injection sites: acute necrosis of tissue at the injection sites
